This passage reports binding results from PMC9929473, “Ensembles of human myosin-19 bound to calmodulin and regulatory light chain RLC12B drive multimicron transport” (The Journal of Biological Chemistry, 2023).

The chains behind the UniProt entries cited, without tags or fusion partners.
UniProt O14950: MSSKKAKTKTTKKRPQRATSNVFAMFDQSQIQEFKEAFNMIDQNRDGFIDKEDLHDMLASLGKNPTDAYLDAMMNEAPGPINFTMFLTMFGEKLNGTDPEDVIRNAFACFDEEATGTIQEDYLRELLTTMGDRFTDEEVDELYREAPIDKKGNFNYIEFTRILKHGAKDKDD

These are yes or no findings as the source states them, for the method shown. Binding seen in cells or lysates may run through a third protein. Some results given as binding are weak or reduced against the parent protein; the word gives no strength. For part of these data: Where a sequence is shown, tags or fusion partners need not be part of it.

Holding throughout (test): pull-down; co-purification: MBP-IQ-6xHis coexpressed with untagged RLC12B or CaM in E. coli Rosetta; nickel resin, 25 mM Tris-HCl pH 8, 300 mM NaCl, 1 mM EGTA, washes with 10 and 30 mM imidazole, elution with 250 mM imidazole; Coomassie SDS-PAGE
For assay [1], the target named is T1, MBP-IQ1-6xHis fusion protein (Myo19 IQ1) (human).
T1 sequence: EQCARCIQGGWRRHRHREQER

Assay [2] addresses T2, MBP-IQ2-6xHis fusion protein (Myo19 IQ2) (human).
T2 sequence: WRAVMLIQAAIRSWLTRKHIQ

For assay [3], the target named is MBP-IQ3-6xHis fusion protein (Myo19 extended IQ3) (human).

In the case of “RLC12B (untagged) coexpressed with MBP-IQ-6xHis in E. coli (from UniProt O14950 1-172)”, the figures for the binding entry in assay [1], in assay [2] and in assay [3] were “no binding”, “binds” and “binds weakly”, respectively.
